The supplement of paper PMC8728848
The list shows a part of the results.

Columns and labels:
Experiment in all cases: glycan array binding signal (z-score within array); higher = stronger binding
Settings in all cases: glycan notation: IUPAC condensed, linker removed
[1] = target: Gal(b1-3)GlcNAc(b1-6)GalNAc
Method in brief: (§1)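 Negative Z-scores can be read as non-binding. The Z-score is calculated within each array and then averaged across arrays of one protein sequence at different concentrations or buffers and across linkers. Arrays, 3228 in all, were curated from the Consortium for Functional Glycomics database and kept only where the protein sequence was available.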

[2] = target: Gal(b1-3)GlcNAc(b1-6)[Gal(b1-3)]GalNAc
Method in brief: as §1

[3] = target: Gal(b1-3)GlcNAc6S
Method in brief: as §1

[4] = target: Gal(b1-3)[Fuc(a1-4)]GlcNAc
Method in brief: as §1

[5] = target: Gal(b1-3)[Fuc(a1-4)]GlcNAc(b1-2)Man
Method in brief: as §1

[6] = target: Gal(b1-3)[Fuc(a1-4)]GlcNAc(b1-2)Man(a1-3)[Gal(b1-3)[Fuc(a1-4)]GlcNAc(b1-2)Man(a1-6)]Man(b1-4)GlcNAc(b1-4)[Fuc(a1-6)]GlcNAc
Method in brief: as §1

[7] = target: Gal(b1-3)[Fuc(a1-4)]GlcNAc(b1-3)Gal(b1-3)[Fuc(a1-4)]GlcNAc
Method in brief: as §1

[8] = target: Gal(b1-3)[Fuc(a1-4)]GlcNAc(b1-3)Gal(b1-4)[Fuc(a1-3)]GlcNAc
Method in brief: as §1

[9] = target: Gal(b1-3)[Fuc(a1-4)]GlcNAc(b1-6)GalNAc
Method in brief: as §1

[10] = target: Gal(b1-3)[GlcNAc(b1-6)]GalNAc
Method in brief: as §1

[11] = target: Gal(b1-3)[Neu5Ac(a2-6)]GalNAc
Method in brief: as §1

[12] = target: Gal(b1-3)[Neu5Ac(a2-6)]GlcNAc(b1-4)Gal(b1-4)Glc
Method in brief: as §1

[13] = target: Gal(b1-3)[Neu5Ac(b2-6)]GalNAc
Method in brief: as §1

[14] = target: Gal(b1-4)Gal
Method in brief: as §1

[15] = target: Gal(b1-4)GalNAc(a1-3)[Fuc(a1-2)]Gal(b1-4)GlcNAc
Method in brief: as §1

[16] = target: Gal(b1-4)GalNAc(b1-3)[Fuc(a1-2)]Gal(b1-4)GlcNAc
Method in brief: as §1

[17] = target: Gal(b1-4)Glc
Method in brief: as §1

[18] = target: Gal(b1-4)Glc6S
Method in brief: as §1

[19] = target: Gal(b1-4)GlcNAc
Method in brief: as §1

[20] = target: Gal(b1-4)GlcNAc(a1-6)Gal(b1-4)GlcNAc
Method in brief: as §1

[21] = target: Gal(b1-4)GlcNAc(b1-2)Man
Method in brief: as §1

[22] = target: Gal(b1-4)GlcNAc(b1-2)Man(a1-3)Man(b1-4)GlcNAc(b1-4)GlcNAc
Method in brief: as §1

[23] = target: Gal(b1-4)GlcNAc(b1-2)Man(a1-3)[Gal(b1-4)GlcNAc(b1-2)Man(a1-6)]Man(b1-4)GlcNAc(b1-4)GlcNAc
Method in brief: as §1

[24] = target: Gal(b1-4)GlcNAc(b1-2)Man(a1-3)[Gal(b1-4)GlcNAc(b1-2)Man(a1-6)]Man(b1-4)GlcNAc(b1-4)[Fuc(a1-6)]GlcNAc
Method in brief: as §1

[25] = target: Gal(b1-4)GlcNAc(b1-2)Man(a1-3)[Gal(b1-4)GlcNAc(b1-2)Man(a1-6)][Gal(b1-4)GlcNAc(b1-4)]Man(b1-4)GlcNAc(b1-4)[Fuc(a1-6)]GlcNAc
Method in brief: as §1

[26] = target: Gal(b1-4)GlcNAc(b1-2)Man(a1-3)[Gal(b1-4)GlcNAc(b1-2)Man(a1-6)][GlcNAc(b1-4)]Man(b1-4)GlcNAc(b1-4)[Fuc(a1-6)]GlcNAc
Method in brief: as §1

[27] = target: Gal(b1-4)GlcNAc(b1-2)Man(a1-3)[GlcNAc(b1-2)Man(a1-6)]Man(b1-4)GlcNAc(b1-4)GlcNAc
Method in brief: as §1

[28] = target: Gal(b1-4)GlcNAc(b1-2)Man(a1-3)[GlcNAc(b1-4)][Gal(b1-4)GlcNAc(b1-2)Man(a1-6)]Man(b1-4)GlcNAc(b1-4)GlcNAc
Method in brief: as §1

[29] = target: Gal(b1-4)GlcNAc(b1-2)Man(a1-3)[Man(a1-6)]Man(b1-4)GlcNAc(b1-4)GlcNAc
Method in brief: as §1

[30] = target: Gal(b1-4)GlcNAc(b1-2)Man(a1-6)Man(b1-4)GlcNAc(b1-4)GlcNAc
Method in brief: as §1

[31] = target: Gal(b1-4)GlcNAc(b1-2)Man(a1-6)[GlcNAc(b1-2)Man(a1-3)]Man(b1-4)GlcNAc(b1-4)GlcNAc
Method in brief: as §1

[32] = target: Gal(b1-4)GlcNAc(b1-2)Man(a1-6)[Man(a1-3)]Man(b1-4)GlcNAc(b1-4)GlcNAc
Method in brief: as §1

[33] = target: Gal(b1-4)GlcNAc(b1-2)[Gal(b1-4)GlcNAc(b1-4)]Man(a1-3)[Gal(b1-4)GlcNAc(b1-2)Man(a1-6)]Man(b1-4)GlcNAc(b1-4)GlcNAc
Method in brief: as §1

[34] = target: Gal(b1-4)GlcNAc(b1-2)[Gal(b1-4)GlcNAc(b1-4)]Man(a1-3)[Gal(b1-4)GlcNAc(b1-2)[Gal(b1-4)GlcNAc(b1-6)]Man(a1-6)]Man(b1-4)GlcNAc(b1-4)GlcNAc
Method in brief: as §1

[35] = target: Gal(b1-4)GlcNAc(b1-2)[Gal(b1-4)GlcNAc(b1-4)]Man(a1-3)[GlcNAc(b1-4)][Gal(b1-4)GlcNAc(b1-2)Man(a1-6)]Man(b1-4)GlcNAc(b1-4)GlcNAc
Method in brief: as §1

[36] = target: Gal(b1-4)GlcNAc(b1-2)[Gal(b1-4)GlcNAc(b1-4)]Man(a1-3)[GlcNAc(b1-4)][Gal(b1-4)GlcNAc(b1-2)[Gal(b1-4)GlcNAc(b1-6)]Man(a1-6)]Man(b1-4)GlcNAc(b1-4)GlcNAc
Method in brief: as §1

[37] = target: Gal(b1-4)GlcNAc(b1-2)[Gal(b1-4)GlcNAc(b1-6)]Man(a1-6)[Gal(b1-4)GlcNAc(b1-2)Man(a1-3)]Man(b1-4)GlcNAc(b1-4)GlcNAc
Method in brief: as §1

[38] = target: Gal(b1-4)GlcNAc(b1-2)[Gal(b1-4)GlcNAc(b1-6)]Man(a1-6)[Gal(b1-4)GlcNAc(b1-2)Man(a1-3)]Man(b1-4)GlcNAc(b1-4)[Fuc(a1-6)]GlcNAc
Method in brief: as §1

[39] = target: Gal(b1-4)GlcNAc(b1-2)[Gal(b1-4)GlcNAc(b1-6)]Man(a1-6)[GlcNAc(b1-4)][Gal(b1-4)GlcNAc(b1-2)Man(a1-3)]Man(b1-4)GlcNAc(b1-4)GlcNAc
Method in brief: as §1

[40] = target: Gal(b1-4)GlcNAc(b1-2)[Gal(b1-4)GlcNAc(b1-6)]Man(a1-6)[GlcNAc(b1-4)][Gal(b1-4)GlcNAc(b1-2)[Gal(b1-4)GlcNAc(b1-4)]Man(a1-3)]Man(b1-4)GlcNAc(b1-4)[Fuc(a1-6)]GlcNAc
Method in brief: as §1

[41] = target: Gal(b1-4)GlcNAc(b1-3)Gal(b1-3)GalNAc
Method in brief: as §1

[42] = target: Gal(b1-4)GlcNAc(b1-3)Gal(b1-3)GlcNAc
Method in brief: as §1

[43] = target: Gal(b1-4)GlcNAc(b1-3)Gal(b1-4)Glc
Method in brief: as §1

[44] = target: Gal(b1-4)GlcNAc(b1-3)Gal(b1-4)GlcNAc
Method in brief: as §1

[45] = target: Gal(b1-4)GlcNAc(b1-3)Gal(b1-4)GlcNAc(b1-2)Man(a1-3)[Gal(b1-4)GlcNAc(b1-3)Gal(b1-4)GlcNAc(b1-2)Man(a1-6)]Man(b1-4)GlcNAc(b1-4)GlcNAc
Method in brief: as §1

B1: AT3G09350(27) (Arabidopsis thaliana), Q84J81 (protein)
chain: MAKDGPNWDGLLKWSLSHADGTRPTRQLSEEDRKWFMEAMQSQTVDVVKRMKEITLVMQTPEQVLVEHGVTPEDIQDLLDELQEHVESIDMANDLHSIGGLVPLLSFLKNSHANIRAKAADVVSTIVQNNPRSQELVMETNALESLLSNFTSDTDIHARTQALGAISSLIRHNKPGVTAFKLANGYAGLRDALASDSVRFQRKALNLLQYLLQEDDSDRSIATGLGFPRVMMHLASSDDAEIREAALRGLLELSREKNDGSSSIDKSDEKLRQLLEERIKGITLMSQEDLETVKEERQLVDLLWSICYNEPSSLREKGLVVLPGEDALPPDVASKLFEPPLRASAANRNATEKKDEPMKLLGP
glycan array binding signal (z-score) [1]: -0.689 | glycan array binding signal (z-score) [2]: -0.066 | glycan array binding signal (z-score) [3]: 0.242 | glycan array binding signal (z-score) [4]: -0.1 | glycan array binding signal (z-score) [5]: -0.052 | glycan array binding signal (z-score) [6]: 0.226 | glycan array binding signal (z-score) [7]: 0.238 | glycan array binding signal (z-score) [8]: 0.484 | glycan array binding signal (z-score) [9]: -0.347 | glycan array binding signal (z-score) [10]: 0.004 | glycan array binding signal (z-score) [11]: -0.32 | glycan array binding signal (z-score) [12]: -0.501 | glycan array binding signal (z-score) [13]: -0.235 | glycan array binding signal (z-score) [14]: -0.503 | glycan array binding signal (z-score) [15]: 0.515 | glycan array binding signal (z-score) [16]: -0.301 | glycan array binding signal (z-score) [17]: -0.468 | glycan array binding signal (z-score) [18]: 0.57 | glycan array binding signal (z-score) [19]: -0.033 | glycan array binding signal (z-score) [20]: -0.028 | glycan array binding signal (z-score) [21]: 0.656 | glycan array binding signal (z-score) [22]: -0.336 | glycan array binding signal (z-score) [23]: -0.354 | glycan array binding signal (z-score) [24]: 0.1 | glycan array binding signal (z-score) [25]: -0.391 | glycan array binding signal (z-score) [26]: -0.678 | glycan array binding signal (z-score) [27]: -0.173 | glycan array binding signal (z-score) [28]: -0.132 | glycan array binding signal (z-score) [29]: 0.672 | glycan array binding signal (z-score) [30]: -0.149 | glycan array binding signal (z-score) [31]: 0.134 | glycan array binding signal (z-score) [32]: 0.115 | glycan array binding signal (z-score) [33]: 0.33 | glycan array binding signal (z-score) [34]: 0.086 | glycan array binding signal (z-score) [35]: 0.348 | glycan array binding signal (z-score) [36]: -0.3 | glycan array binding signal (z-score) [37]: -0.236 | glycan array binding signal (z-score) [38]: -0.389 | glycan array binding signal (z-score) [39]: -0.293 | glycan array binding signal (z-score) [40]: 0.66 | glycan array binding signal (z-score) [41]: 0.008 | glycan array binding signal (z-score) [42]: -0.739 | glycan array binding signal (z-score) [43]: 0.442 | glycan array binding signal (z-score) [44]: 0.42 | glycan array binding signal (z-score) [45]: 0.418
